B1: Q0KA99_CUPNH: Ralstonia eutropha acyl-CoA synthetase (AMP-forming)/AMP-acid ligase II (EC 6.2.1.-), candidate for reaction A1 (protein)
chain: MTMQAESSPTILPIGGLSHVRGDTTIPLSEQTVPELLAQTVARYPERKAVAFREQGVRWNWREFSDAVDALAAGLHTLGLARGDRVGIWSPNRVEWLVTQFATARLGLVLVNINPAYRLSELEYALNKVGVKAIVAAEAFKTSRYLEMLQVLAPELATCAPGELQAARLPALRCVIRMGDDHTPGMLRYADVIARGTGVARSTLDAITAQLDRHDPINVQFTSGTTGAPKGATLTHRNIVNNARFIAMAMRFSEQDKLCIPVPFYHCFGMVLAVLACVSSGAAMVFPGQAFEPEATMQAVSEERCTALHGVPTMFIAQLDHPNFASYDFSSLRTGIMAGSPCPIETMKRVVSQMHMSEVTIAYGMTETSPVSFQSSTTDPLDKRTTTVGRIQPHLEVRIVDATGATVPVGETGELCTRGYSVMLGYWDDEARTAEAIRDGWMHTGDLATIDAEGYCNIVGRVKDMLIRGGENIYPREIEEFLFRHPKVQAVQVFGVPDQKYGEEVCAWIVLKPGASATEDEIRDFCRDQIAHYKIPRYIRFVDEMPMTITGKVQKFVMRERMTQDLKLSESRTA
modifications: Uniprot Name: Q0KA99_CUPNH: Acyl-CoA synthetase (AMP forming)/AMP-acid ligase II
notes: Ralstonia eutropha acyl-CoA synthetase (AMP-forming)/AMP-acid ligase II (EC 6.2.1.-), candidate for reaction A1
B2: Q0KC00_CUPNH: subunit of a Ralstonia eutropha succinyl-CoA:3-ketoacid-coenzyme A transferase (EC 2.8.3.5), gene H16_A1331 (protein)
chain: MNKVYASAAEALAGVVRDGQTIAVGGFGLCGIPEALIAALRDSGAKQLTCISNNAGVDGFGLGLLLATRQISKMISSYVGENKEFERQYLAGELELEFTPQGTLAEKLRAGGSGIPAFFTKTGVGTIVAEGKEIREFDGQQYVMERSLTADVALVKAYKADKAGNLVFRRTARNFNPMCAMAGKVTIAEVEHIVETGELDPDEIHLAGIFVKRLVLNTTPEKRIEQRTVRAAS
modifications: Uniprot Name: Q0KC00_CUPNH:Succinyl coA:3- ketoacid transferase subunit A
notes: subunit of a Ralstonia eutropha succinyl-CoA:3-ketoacid-coenzyme A transferase (EC 2.8.3.5), gene H16_A1331
B3: BKTB_CUPNH: Ralstonia eutropha beta-ketothiolase (EC 2.3.1.16/EC 2.3.1.9), candidate for reaction B (protein)
chain: MTREVVVVSGVRTAIGTFGGSLKDVAPAELGALVVREALARAQVSGDDVGHVVFGNVIQTEPRDMYLGRVAAVNGGVTINAPALTVNRLCGSGLQAIVSAAQTILLGDTDVAIGGGAESMSRAPYLAPAARWGARMGDAGLVDMMLGALHDPFHRIHMGVTAENVAKEYDISRAQQDEAALESHRRASAAIKAGYFKDQIVPVVSKGRKGDVTFDTDEHVRHDATIDDMTKLRPVFVKENGTVTAGNASGLNDAAAAVVMMERAEAERRGLKPLARLVSYGHAGVDPKAMGIGPVPATKIALERAGLQVSDLDVIEANEAFAAQACAVTKALGLDPAKVNPNGSGISLGHPIGATGALITVKALHELNRVQGRYALVTMCIGGGQGIAAIFERI
modifications: Uniprot name: BKTB_CUPNH : Beta-ketothiolase BktB (acetyl-coA acetyltransferase) (acetyl coA-acyltransferase)
notes: Ralstonia eutropha beta-ketothiolase (EC 2.3.1.16/EC 2.3.1.9), candidate for reaction B
B4: ACSA_CUPNH: Acetyl-coenzyme A synthetase (EC 6.2.1.1), putative candidate for reaction A1 (protein, UniProt P31638 1-660, looked up)
Acetyl-coenzyme A synthetase: MSAIESVMQEHRVFNPPEGFASQAAIPSMEAYQALCDEAERDYEGFWARHARELLHWTKPFTKVLDQSNAPFYKWFEDGELNASYNCLDRNLQNGNADKVAIVFEADDGSVTRVTYRELHGKVCRFANGLKALGIRKGDRVVIYMPMSVEGVVAMQACARLGATHSVVFGGFSAKSLQERLVDVGAVALITADEQMRGGKALPLKAIADDALALGGCEAVRNVIVYRRTGGKVAWTEGRDRWMEDVSAGQPDTCEAEPVSAEHPLFVLYTSGSTGKPKGVQHSTGGYLLWALMTMKWTFDIKPDDLFWCTADIGWVTGHTYIAYGPLAAGATQVVFEGVPTYPNAGRFWDMIARHKVSIFYTAPTAIRSLIKAAEADEKIHPKQYDLSSLRLLGTVGEPINPEAWMWYYKNIGNERCPIVDTFWQTETGGHMITPLPGATPLVPGSCTLPLPGIMAAIVDETGHDVPNGNGGILVVKRPWPAMIRTIWGDPERFRKSYFPEELGGKLYLAGDGSIRDKDTGYFTIMGRIDDVLNVSGHRMGTMEIESALVSNPLVAEAAVVGRPDDMTGEAICAFVVLKRSRPTGEEAVKIATELRNWVGKEIGPIAKPKDIRFGDNLPKTRSGKIMRRLLRSLAKGEEITQDTSTLENPAILEQLKQAQ
B5: PHBB_CUPNH (protein, UniProt P14697 1-246, looked up)
Acetoacetyl-CoA reductase: MTQRIAYVTGGMGGIGTAICQRLAKDGFRVVAGCGPNSPRREKWLEQQKALGFDFIASEGNVADWDSTKTAFDKVKSEVGEVDVLINNAGITRDVVFRKMTRADWDAVIDTNLTSLFNVTKQVIDGMADRGWGRIVNISSVNGQKGQFGQTNYSTAKAGLHGFTMALAQEVATKGVTVNTVSPGYIATDMVKAIRQDVLDKIVATIPVKRLGLPEEIASICAWLSSEESGFSTGADFSLNGGLHMG
B6: PNP_CUPNH (protein, UniProt Q0KCT4 1-723, looked up)
Polyribonucleotide …: MSMFNKIVKEFQWGQHTVRMETGEIARQAGGAVLVDVEDTVVLATVVAAKNPKPGQDFFPLTVDYIEKTYAAGKIPGGFFKREGRPSENETLTSRLIDRPLRPLFPEGFYNDVQVVIHVVSLNPEVPADIPALIGASAALAVSGIPFNGPVGAARVGYKDGQYLLNPTRSQLATSDLDLVVAGTERAVLMVESEANQLSEDVMLGAVVYGHEQMQIAINAIHELVREGGKPEWDWAPAAKNEPLIAKVTEVALPLLQEAYQLRQKSARSQKLKEVNANVAAALAAAGVEADKVEVGNIMFDLEAKIVRGQVLAGEPRIDGRDTRTVRPIEIRSSVLPRAHGSALFTRGETQALVVATLGTKSDEQIIDALAGEYRDRFMLHYNMPPFATGETGRVGSPKRREIGHGRLAKRALIPVLPKDDEFAYTIRLVSEITESNGSSSMASVCGGCLALMDAGVPVKAHVAGVAMGLILEGNKFAVLTDILGDEDHLGDMDFKVAGTDNGITALQMDIKVQGITKEIMQVALAQAREGRLHILHKMQEAMGHARTELSAHAPRMITMKIHPDKIREVIGKGGSTIQALTKETGTTIDIQEDGTITIASTSTDGMAEAKRRIEGITAEAEVGKIYAGTVLKLLDFGAIVNILPGKDGLLHISEIVNERVKDIKDWLKEGQQVRVKLIQADEKGRLRLSLKAALTEEGGSISPINAGEAAAPAAPAEGSEQQ

These molecules were tested on Ralstonia eutropha DSM428 (assay: Quantitative proteomics of Ralstonia eutropha DSM428 cultivated with or without levulinic acid (nanoLC-MS/MS)). Details: Ralstonia eutropha DSM428, LB rich medium, 5 g/L vs 0 g/L levulinic acid; up-regulated = quantity at least multiplied by 2.
Format: cell-based

Row | Molecule | expression level in response to levulinic acid (protein abundance, % of total proteins)
1 | B1 | up-regulated
2 | B2 | up-regulated
3 | B3 | up-regulated
4 | B4 | not overexpressed

Same assay, conditions: Ralstonia eutropha DSM428, shake flasks, LB rich medium, 0 g/L levulinic acid; nanoLC-MS/MS protein abundance

Row | Molecule | % of total proteins Without LA
5 | B1 | <0.06 % of total proteins
6 | B5 | 1.14 % of total proteins
7 | B6 | 0.59 % of total proteins
8 | B2 | 0.25 % of total proteins
9 | B3 | 0.40 % of total proteins
10 | B4 | 0.52 % of total proteins

Same assay, conditions: Ralstonia eutropha DSM428, shake flasks, LB rich medium, 5 g/L levulinic acid; nanoLC-MS/MS protein abundance

Row | Molecule | % of total proteins With LA
11 | B1 | 0.15 % of total proteins
12 | B5 | 0.85 % of total proteins
13 | B6 | 0.61 % of total proteins
14 | B2 | 0.95 % of total proteins
15 | B3 | 2.00 % of total proteins
16 | B4 | 0.33 % of total proteins

Same assay, conditions: proteomics of Ralstonia eutropha DSM428

Row | Molecule | abundance compared with respective counterparts identified for reactions A and B
17 | B3 | more abundant
